Reference: PubChem BioAssay AID1224826 (NIAID, 2016)

- Assay: 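Regulators of Tlr4 signalling leading to Tnf-alpha expression in macrophages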 (primary screen)
- System: RAW264.7 G9 macrophages from mouse bearing reporters for p65 (GFP) and the Tnf promoter (mCherry)
- Reagent: siRNA pool against mouse genes, 100 nM
- Timing: 16 h of LPS stimulation, after 2 days of siRNA transfection
- Conditions: bacterial lipopolysaccharide (Salmonella minnesota R595), 10 ng/ml
- Measured: 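Nuclear mCherry signal of the Tnf promoter reporter measured by imaging after background removal, scaled to each plate median and turned into robust z-scores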
- Reading the numbers: Tnf reporter robust z-score: higher = stronger Tnf promoter reporter signal after LPS; Tnf reporter intensity: higher = stronger Tnf promoter reporter signal
- Rule for the call: 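Called active when robust z-score is at most -1.3, matching the median of the Tlr4 knock-down control, or over 3; control wells and wells with under 50 cells never active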
- Meaning of the calls: active = Tnf reporter clearly lowered or raised; inactive = no clear change in Tnf reporter
The deposit covers about 17,000 reagents; this is a part drawn at random. Over the whole deposit, about 1,110 (6.6%) were called active. 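Active means lowered or raised reporter signal; replicate intensities are raw and not normalised per plate.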 Reagents against one gene are numbered here.

no.	gene	reagent	Tnf reporter robust z-score	fewer than 50 cells in well	Tnf reporter intensity, replicate 1	Tnf reporter intensity, replicate 2	activity call
1	Serpinb9e (GeneID 20710)	1	-0.76	enough cells in well	76.7	63.4	inactive
2	Ebi3 (GeneID 50498)	1	-1.02	enough cells in well	155	146	inactive
3	Mcrip2 (GeneID 68241)	1		fewer than 50 cells per well; well left out of calls	140	170	inactive
4	Zfp358 (GeneID 140482)	1	0.66	enough cells in well	161	143	inactive
5	Kdm5c (GeneID 20591)	1	-0.65	enough cells in well	147	105	inactive
6	Cox15 (GeneID 226139)	1	0	enough cells in well	234	205	inactive
7	Slc39a14 (GeneID 213053)	1		fewer than 50 cells per well; well left out of calls	50.2	50	inactive
8	C130070B15Rik (GeneID 320891)	1	-1.02	enough cells in well	77.5	101	inactive
9	Rassf7 (GeneID 66985)	1	1.57	enough cells in well	243	240	inactive
10	Or51a25 (GeneID 259116)	1		fewer than 50 cells per well; well left out of calls	49.8	51.7	inactive
11	Or5w17 (GeneID 258630)	1	-0.49	enough cells in well	171	114	inactive
12	Yme1l1 (GeneID 27377)	1	0.08	enough cells in well	222	253	inactive
13	Ccn1 (GeneID 16007)	1	-0.24	enough cells in well	216	185	inactive
14	Nol11 (GeneID 68979)	1	1.63	enough cells in well	296	150	inactive
15	Sp7 (GeneID 170574)	1	-0.5	enough cells in well	276	141	inactive
16	Polr1has (GeneID 76416)	1	2.86	enough cells in well	412	181	inactive
17	Trim8 (GeneID 93679)	1	-0.14	enough cells in well	241	193	inactive
18	Scn3a (GeneID 20269)	1	-0.02	enough cells in well	113	141	inactive
19	Bche (GeneID 12038)	1	-0.36	enough cells in well	128	142	inactive
20	Tbl2 (GeneID 27368)	1		fewer than 50 cells per well; well left out of calls	95.8	64.9	inactive
21	Mplkip (GeneID 66308)	1	-1.15	enough cells in well	142	46.2	inactive
22	Fcgr4 (GeneID 246256)	1	-0.95	enough cells in well	141	174	inactive
23	Adh7 (GeneID 11529)	1	-0.05	enough cells in well	170	162	inactive
24	Cenpc1 (GeneID 12617)	1	-0.62	enough cells in well	184	174	inactive
25	Trps1 (GeneID 83925)	1	-0.05	enough cells in well	185	275	inactive
26	Emid1 (GeneID 140703)	1	2.01	enough cells in well	311	98.6	inactive
27	Zfp160 (GeneID 224585)	1	-0.49	enough cells in well	113	153	inactive
28	LTO1 (GeneID 72284)	1	0.72	enough cells in well	184	87.5	inactive

Continued, starting with the last 7 of the part before.
no.	gene	reagent	Tnf reporter robust z-score	fewer than 50 cells in well	Tnf reporter intensity, replicate 1	Tnf reporter intensity, replicate 2	activity call
22	Fcgr4 (GeneID 246256)	1	-0.95	enough cells in well	141	174	inactive
23	Adh7 (GeneID 11529)	1	-0.05	enough cells in well	170	162	inactive
24	Cenpc1 (GeneID 12617)	1	-0.62	enough cells in well	184	174	inactive
25	Trps1 (GeneID 83925)	1	-0.05	enough cells in well	185	275	inactive
26	Emid1 (GeneID 140703)	1	2.01	enough cells in well	311	98.6	inactive
27	Zfp160 (GeneID 224585)	1	-0.49	enough cells in well	113	153	inactive
28	LTO1 (GeneID 72284)	1	0.72	enough cells in well	184	87.5	inactive
29	Or9s23 (GeneID 259039)	1	-1.19	enough cells in well	132	56	inactive
30	Yod1 (GeneID 226418)	1	1.31	enough cells in well	236	296	inactive
31	Eml3 (GeneID 225898)	1	-0.83	enough cells in well	160	136	inactive
32	Cd86 (GeneID 12524)	1	-1.12	enough cells in well	150	133	inactive
33	Rfc1 (GeneID 19687)	1	0.47	enough cells in well	357	239	inactive
34	Creb3 (GeneID 12913)	1	-0.09	enough cells in well	220	204	inactive
35	Ercc6l2 (GeneID 76251)	1	0.53	enough cells in well	327	86.1	inactive
36	Rnpep (GeneID 215615)	1	-0.12	enough cells in well	337	169	inactive
37	Tlx3 (GeneID 27140)	1		fewer than 50 cells per well; well left out of calls	133	111	inactive
38	Or5b122 (GeneID 258288)	1	0.42	enough cells in well	249	108	inactive
39	Evi5 (GeneID 14020)	1	0.16	enough cells in well	202	183	inactive
40	Gpr151 (GeneID 240239)	1	0.04	enough cells in well	172	381	inactive
41	Ngb (GeneID 64242)	1	-1.1	enough cells in well	154	60.3	inactive
42	Atp1b2 (GeneID 11932)	1	-0.54	enough cells in well	166	109	inactive
43	Map4k3 (GeneID 225028)	1	-0.81	enough cells in well	142	163	inactive
44	Klhdc1 (GeneID 271005)	1	-0.3	enough cells in well	179	114	inactive
45	Tmod1 (GeneID 21916)	1	-0.56	enough cells in well	96.4	65.7	inactive
46	Gm5114 (GeneID 330513)	1		fewer than 50 cells per well; well left out of calls	146	52	inactive
47	Or13c7 (GeneID 29845)	1	0.12	enough cells in well	152	151	inactive
48	Uchl1 (GeneID 22223)	1	-0.35	enough cells in well	205	200	inactive
49	Pqbp1 (GeneID 54633)	1		fewer than 50 cells per well; well left out of calls	124	123	inactive
50	Bdh2 (GeneID 69772)	1	-0.58	enough cells in well	190	98.9	inactive
51	Rab3il1 (GeneID 74760)	1	-0.09	enough cells in well	284	210	inactive
52	Rab3il1 (GeneID 74760)	2	2.28	enough cells in well	276	333	inactive
53	Srrm2 (GeneID 75956)	1	0.27	enough cells in well	296	242	inactive
54	Cpt1b (GeneID 12895)	1	-0.69	enough cells in well	133	144	inactive
55	Mat2b (GeneID 108645)	1	0.5	enough cells in well	235	161	inactive
56	Or13p8 (GeneID 258301)	1	-0.3	enough cells in well	177	97.9	inactive
57	Narf (GeneID 67608)	1	0.52	enough cells in well	185	87.1	inactive
58	Ncoa4 (GeneID 27057)	1	0.54	enough cells in well	294	257	inactive
